Part of at least one peptide drawing is inferred or uncertain, most often the ends. Peptide text beside a SMILES is read from it.
System: lymph node cells from mice immunized with SRBC
Assay: Antibody production (AFC number, Jerne's method) in culture of immune lymph node cells
Assay type: cell-based
Conditions: doses between 10^-9 and 10^-13 g/ml, 20-hour incubation

SMILES | Increase in antibody production (stimulation coefficient, AFC number vs control well)
CC(C)C[C@H](N)C(=O)N[C@H](C(=O)N[C@H](C(=O)N[C@@H](Cc1ccc(O)cc1)C(=O)N1CCC[C@H]1C(=O)N[C@@H](Cc1c[nH]c2ccccc12)C(=O)O)C(C)C)C(C)C [β-chain, Leu--Val--Val--Tyr--Pro--Trp] (H-LVVYPW-OH) | not
CC(C)C[C@H](NC(=O)[C@@H](N)Cc1ccccc1)C(=O)NCC(=O)N[C@@H](Cc1ccccc1)C(=O)N1CCC[C@H]1C(=O)N[C@H](C(=O)O)[C@@H](C)O [α-chain, Phe--Leu--Gly--Phe--Pro--Thr] (H-FLGFPT-OH) | 1.8 fold
